Test results from PubChem BioAssay AID624297 (National Center for Advancing Translational Sciences (NCATS), 2012).
Out of some 340,000 compounds screened, about 6,200 (1.8%) were called active. Inconclusive means that the source gave no clear call. Such entries were picked first, then a sample of the others. Calls come from the whole dose curve; as a rule, active = well fitted activation curve with a large enough effect; inconclusive = small, poorly fitted or top-dose-only effect; inactive = no such curve, though single readings can be large or run the other way. Where the call is inconclusive, the potency comes from a doubtful curve fit.

Test: A quantitative high throughput screen for small molecules that induce DNA re-replication in SW480 colon adenocarcinoma cells. For re-replication activation: % of control where 0% means no effect. Note: nearly all actives have a fitted effect of over 55% in size.
Details: Hoechst DNA content imaging, 48 h; re-replication activation: at 46.1 µM (top of the series) unless noted
Method in brief: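 Image-based DNA-content assay: after two days of treatment, nuclei were labelled with the DNA dye Hoechst and imaged, and hits were compounds raising the count of nuclei showing high fluorescence intensity.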
Potency is the fitted concentration of half-maximal effect.

| SMILES | Potency | re-replication activation |
| --- | --- | --- |
| CC(C)CN1C(=O)C(=O)N(CC(=O)Nc2cc(Cl)ccc2Oc2ccccc2)C1=O | inconclusive: 4.11 µM [activator, full curve, poor fit] | – |
| Cc1c(Cc2ccc3c(c2)OCO3)sc(NC(=O)c2cccc3ccccc23)c1C(N)=O | inconclusive: 18.4 µM [activator, single point] | – |
| Cc1sc2ncn(CC(=O)N3CCN(c4ccccc4F)CC3)c(=O)c2c1S(=O)(=O)N1CCOCC1 | – | inactive: -15% |
| Cc1ccccc1CN1C(=O)c2ccccc2Sc2ccc(C(=O)NCCCN3CCOCC3)cc21 | inconclusive: 18.4 µM [activator, single point] | – |
| OC(COc1ccc(F)cc1Cl)CN1CCC(Cc2ccccc2)CC1 (stereo not given) | inconclusive: 20.6 µM [activator, partial curve, poor fit] | – |
| CCCOc1ccc(Cn2ccnc2)cc1[N+](=O)[O-] | – | inactive: -3.74% |
| COc1ccccc1N1CCN(CC(O)COc2cccc3ccccc23)CC1 (stereo not given) | inconclusive: 0.501 µM [activator, full curve, poor fit] | – |
| Cc1cccc(C)c1OCC(=O)NNC(=S)NC(=O)C1CC1 | inconclusive: 25.9 µM [activator, single point] | – |
| COc1ccc(Nc2cc(C)nc(-n3nc(C)cc3C)n2)cc1 | active: 7.31 µM | – |
| CSc1nc(NCc2ccco2)c2ccccc2n1 | – | inactive: -33.3% |
| COC(=O)c1ccc(C)c(NC(=O)c2ccc(CN3CCc4ccccc4C3)cc2)c1 | – | inactive: 1.51% |
| O=S(=O)(NCc1ccccc1)c1cccc(S(=O)(=O)N2CCOCC2)c1 | inconclusive: 20.6 µM [activator, single point] | – |
| COc1ccc(S(=O)(=O)N2CCOC2CNC(=O)C(=O)NCCc2ccc(OC)c(OC)c2)cc1 (stereo not given) | – | inactive: 12.3% |
| COc1ccccc1C/C(N)=N/OC(=O)c1ccc(C)c([N+](=O)[O-])c1 | inconclusive: 29.1 µM [activator, partial curve, poor fit] | – |
| Cc1cc(NC(C)C)n2c(nc3ccccc32)c1C#N | inconclusive: 20.6 µM [activator, partial curve, poor fit] | – |
| COc1ccccc1CN(C)C(=O)c1cccc(S(=O)(=O)N2CCCc3ccccc32)c1 | – | inactive: 5.62% |
| COc1ccccc1CNC(=O)CCC(=O)Nc1nnc(C(C)C)s1 | inconclusive: 32.6 µM [activator, partial curve, poor fit] | – |
| CC(Sc1nncn1C)C(=O)Nc1ccc2ccccc2c1 (stereo not given) | inconclusive: 8.2 µM [activator, partial curve, poor fit] | – |
| CC1=C(C(=O)OC(C)C)C(c2cccs2)N2C(=O)C(C)SC2=N1 (stereo not given) | inconclusive: 35.5 µM [activator, partial curve, poor fit] | – |
| CCN(CC(=O)NCc1ccc(Cl)cc1)C(=O)CCOc1ccc(C)cc1 | inconclusive: 29.1 µM [activator, single point] | – |
| CC1(C)C(=O)Nc2ccccc2N1C(=O)COC(=O)c1cccc(O)c1 | inconclusive: 3.26 µM [activator, single point] | – |
| Cc1cccc2cc3c(NC(=O)C(C)C)nn(C)c3nc12 | inconclusive: 29.1 µM [activator, single point] | – |
| Cc1ccc(-c2c3c(=O)n(C)c(=O)n(C)c3cn2Cc2ccccn2)cc1 | – | inactive: -6.53% |

Part of the list above, bar-delimited.
SMILES | Potency | re-replication activation
CSc1nc(NCc2ccco2)c2ccccc2n1 | – | inactive: -33.3%
COC(=O)c1ccc(C)c(NC(=O)c2ccc(CN3CCc4ccccc4C3)cc2)c1 | – | inactive: 1.51%
O=S(=O)(NCc1ccccc1)c1cccc(S(=O)(=O)N2CCOCC2)c1 | inconclusive: 20.6 µM [activator, single point] | –
COc1ccc(S(=O)(=O)N2CCOC2CNC(=O)C(=O)NCCc2ccc(OC)c(OC)c2)cc1 (stereo not given) | – | inactive: 12.3%
COc1ccccc1C/C(N)=N/OC(=O)c1ccc(C)c([N+](=O)[O-])c1 | inconclusive: 29.1 µM [activator, partial curve, poor fit] | –
Cc1cc(NC(C)C)n2c(nc3ccccc32)c1C#N | inconclusive: 20.6 µM [activator, partial curve, poor fit] | –
COc1ccccc1CN(C)C(=O)c1cccc(S(=O)(=O)N2CCCc3ccccc32)c1 | – | inactive: 5.62%
COc1ccccc1CNC(=O)CCC(=O)Nc1nnc(C(C)C)s1 | inconclusive: 32.6 µM [activator, partial curve, poor fit] | –
CC(Sc1nncn1C)C(=O)Nc1ccc2ccccc2c1 (stereo not given) | inconclusive: 8.2 µM [activator, partial curve, poor fit] | –
CC1=C(C(=O)OC(C)C)C(c2cccs2)N2C(=O)C(C)SC2=N1 (stereo not given) | inconclusive: 35.5 µM [activator, partial curve, poor fit] | –
CCN(CC(=O)NCc1ccc(Cl)cc1)C(=O)CCOc1ccc(C)cc1 | inconclusive: 29.1 µM [activator, single point] | –
CC1(C)C(=O)Nc2ccccc2N1C(=O)COC(=O)c1cccc(O)c1 | inconclusive: 3.26 µM [activator, single point] | –
Cc1cccc2cc3c(NC(=O)C(C)C)nn(C)c3nc12 | inconclusive: 29.1 µM [activator, single point] | –

(listing goes on)

| SMILES | Potency | re-replication activation |
| --- | --- | --- |
| CN1CCN(C(=S)NC(CC(=O)c2ccccc2)c2ccccc2)CC1 (stereo not given) | – | inactive: -41.4% |
| Cc1cc(N)cc(C)c1-c1c(Br)cc(N)cc1Br | inconclusive: 25.9 µM [activator, single point] | – |
| O=C(c1cc(N2C(=O)C3C4CCC(C4)C3C2=O)ccc1Cl)N1CCN(c2ccc(F)cc2)CC1 (stereo not given) | – | inactive: -2.05% |
| CCC(=O)N(C1=C(NC(C)C)C(=O)c2ccccc2C1=O)C(C)C | – | inactive: -9.45% |
| COc1ccc(-c2sc3cc4c(cc3c2C#Cc2ccc(N)cc2)OCO4)cc1 | inconclusive: 23.1 µM [activator, single point] | – |
| Cc1nn(-c2ccc(N3CCCCC3)nn2)c(C)c1CCC(=O)Nc1cccc(F)c1 | – | inconclusive: -28.3% [activator] |
| CCCn1nnnc1NC(=O)c1ccc2ccccc2c1 | inconclusive: 29.1 µM [activator, single point] | – |
| COc1ccc(OC)c(/C=C/C(=O)OCC(=O)NC2CCCCCCC2)c1 | – | inactive: -4.2% |
| O=C(CCn1ccnc1)Nc1cc(Cl)ccc1O | – | inactive: 7.55% |
| CC(C)Oc1cccc(C(=O)C2CCCN(Cc3cnc(N4CCCC4)s3)C2)c1 (stereo not given) | inconclusive: 13 µM [activator, partial curve] | – |
| O=C(CNC(=O)c1ccco1)NCC(c1ccco1)N1CCCCC1 (stereo not given) | – | inactive: -29.4% |
| CC1(C)O[C@@H]2[C@H](O1)[C@@H](CO)O[C@H]2n1ccc(=O)[nH]c1=O | – | inactive: -3.58% |
| NC1=NC[C@@H](Cc2ccc(O)cc2)N1CCc1cccc(F)c1 | inconclusive: 6.51 µM [activator, single point] | – |
| CCN(CC)S(=O)(=O)c1ccc(N2CCN(C)CC2)c(NC(=O)COc2ccc(F)cc2Cl)c1 | inconclusive: 18.4 µM [activator, single point] | – |
| Nc1nc2ccccc2n1C(=O)CCc1ccccc1 | inconclusive: 20.6 µM [activator, single point] | – |
| CCCN1CCC(=O)N([C@H](CSc2ccc(OC)cc2)Cc2ccccc2)CC1 | – | inactive: -2.63% |
| CCCC(=O)OC(C(=O)Nc1cc(C(F)(F)F)ccc1Cl)c1ccccc1 (stereo not given) | inconclusive: 18.4 µM [activator, single point] | – |
| C=CCc1ccc(OCCCCN2CC(C)OC(C)C2)c(OC)c1 (stereo not given) | – | inactive: -4.34% |
| COc1cc(OC)c(NC(=O)c2sc3ncn(CC(=O)N4CCN(c5ccccn5)CC4)c(=O)c3c2C)cc1Cl | – | inactive: -4.6% |
| CC(=O)N(Cc1ccc(Br)cc1)c1cccc(C)c1C | inconclusive: 29.1 µM [activator, single point] | – |
| COCCOc1cc(NC(=O)c2sccc2Oc2ccc([N+](=O)[O-])cc2F)c(Cl)cc1Cl | inconclusive: 23.1 µM [activator, partial curve, poor fit] | – |
| CCCC1=Nc2cc(C(=O)NCCN3CCCC3)ccc2Sc2ccccc21 | inconclusive: 29.1 µM [activator, single point] | – |
